The source of these data is the supplement of paper PMC12819154, “High-throughput peptide-centric local stability assay extends protein–ligand identification to membrane proteins, tissues and bacteria” (Nature Structural & Molecular Biology, 2025).

The chains behind the UniProt entries cited, without tags or fusion partners. Where a name states a change or a piece, a line headed by the entry shows the natural chain unless it says otherwise.
UniProt Q9CQV1: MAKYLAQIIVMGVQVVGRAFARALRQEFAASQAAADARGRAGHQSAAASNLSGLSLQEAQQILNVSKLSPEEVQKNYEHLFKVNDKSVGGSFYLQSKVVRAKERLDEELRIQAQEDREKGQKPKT
UniProt Q99NB8, whole entry: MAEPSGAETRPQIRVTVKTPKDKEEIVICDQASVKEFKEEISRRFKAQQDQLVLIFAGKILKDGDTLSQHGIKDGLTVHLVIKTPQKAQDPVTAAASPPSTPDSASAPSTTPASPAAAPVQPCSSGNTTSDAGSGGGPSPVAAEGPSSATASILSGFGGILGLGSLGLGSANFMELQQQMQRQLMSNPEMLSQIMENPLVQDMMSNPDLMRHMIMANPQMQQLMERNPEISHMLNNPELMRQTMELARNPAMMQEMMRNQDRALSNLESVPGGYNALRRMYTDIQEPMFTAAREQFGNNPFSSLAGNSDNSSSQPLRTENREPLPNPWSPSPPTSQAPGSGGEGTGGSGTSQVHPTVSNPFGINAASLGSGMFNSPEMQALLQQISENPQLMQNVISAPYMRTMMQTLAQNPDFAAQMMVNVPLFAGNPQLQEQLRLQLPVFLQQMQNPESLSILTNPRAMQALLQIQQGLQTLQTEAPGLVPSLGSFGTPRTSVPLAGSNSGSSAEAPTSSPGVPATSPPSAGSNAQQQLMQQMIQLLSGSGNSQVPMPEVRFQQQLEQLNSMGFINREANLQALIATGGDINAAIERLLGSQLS
UniProt Q9CQ36: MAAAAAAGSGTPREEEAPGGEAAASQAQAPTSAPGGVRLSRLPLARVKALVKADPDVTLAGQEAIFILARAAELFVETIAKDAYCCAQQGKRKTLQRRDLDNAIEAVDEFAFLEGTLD
UniProt Q9CR50: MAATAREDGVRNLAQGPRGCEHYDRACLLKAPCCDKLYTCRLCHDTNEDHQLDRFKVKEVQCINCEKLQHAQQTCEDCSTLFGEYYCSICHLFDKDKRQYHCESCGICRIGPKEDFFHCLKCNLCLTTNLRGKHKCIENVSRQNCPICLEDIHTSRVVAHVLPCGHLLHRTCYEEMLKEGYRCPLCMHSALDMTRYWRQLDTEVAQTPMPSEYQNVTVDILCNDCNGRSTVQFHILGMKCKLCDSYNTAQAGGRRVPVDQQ
UniProt Q9CQ71: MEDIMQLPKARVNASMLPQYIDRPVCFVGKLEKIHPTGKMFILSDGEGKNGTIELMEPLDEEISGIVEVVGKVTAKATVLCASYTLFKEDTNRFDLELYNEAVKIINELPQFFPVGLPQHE
UniProt Q9CQM9: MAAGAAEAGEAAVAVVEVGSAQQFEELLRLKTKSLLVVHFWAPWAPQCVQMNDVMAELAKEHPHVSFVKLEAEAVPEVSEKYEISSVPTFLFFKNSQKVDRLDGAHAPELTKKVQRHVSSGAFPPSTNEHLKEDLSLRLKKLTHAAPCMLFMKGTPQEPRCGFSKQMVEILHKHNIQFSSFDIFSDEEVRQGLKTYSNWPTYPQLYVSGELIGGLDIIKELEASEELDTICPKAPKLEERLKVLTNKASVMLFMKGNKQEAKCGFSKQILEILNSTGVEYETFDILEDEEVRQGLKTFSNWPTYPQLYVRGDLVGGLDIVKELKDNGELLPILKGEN
UniProt Q9CQ28: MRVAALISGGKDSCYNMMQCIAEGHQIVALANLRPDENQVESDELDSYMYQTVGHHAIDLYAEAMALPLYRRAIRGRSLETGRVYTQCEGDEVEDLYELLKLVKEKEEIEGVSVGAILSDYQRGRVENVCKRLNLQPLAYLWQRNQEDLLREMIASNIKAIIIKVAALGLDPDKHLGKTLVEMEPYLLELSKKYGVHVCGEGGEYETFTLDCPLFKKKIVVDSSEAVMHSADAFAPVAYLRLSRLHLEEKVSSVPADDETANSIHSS
UniProt Q99NB9: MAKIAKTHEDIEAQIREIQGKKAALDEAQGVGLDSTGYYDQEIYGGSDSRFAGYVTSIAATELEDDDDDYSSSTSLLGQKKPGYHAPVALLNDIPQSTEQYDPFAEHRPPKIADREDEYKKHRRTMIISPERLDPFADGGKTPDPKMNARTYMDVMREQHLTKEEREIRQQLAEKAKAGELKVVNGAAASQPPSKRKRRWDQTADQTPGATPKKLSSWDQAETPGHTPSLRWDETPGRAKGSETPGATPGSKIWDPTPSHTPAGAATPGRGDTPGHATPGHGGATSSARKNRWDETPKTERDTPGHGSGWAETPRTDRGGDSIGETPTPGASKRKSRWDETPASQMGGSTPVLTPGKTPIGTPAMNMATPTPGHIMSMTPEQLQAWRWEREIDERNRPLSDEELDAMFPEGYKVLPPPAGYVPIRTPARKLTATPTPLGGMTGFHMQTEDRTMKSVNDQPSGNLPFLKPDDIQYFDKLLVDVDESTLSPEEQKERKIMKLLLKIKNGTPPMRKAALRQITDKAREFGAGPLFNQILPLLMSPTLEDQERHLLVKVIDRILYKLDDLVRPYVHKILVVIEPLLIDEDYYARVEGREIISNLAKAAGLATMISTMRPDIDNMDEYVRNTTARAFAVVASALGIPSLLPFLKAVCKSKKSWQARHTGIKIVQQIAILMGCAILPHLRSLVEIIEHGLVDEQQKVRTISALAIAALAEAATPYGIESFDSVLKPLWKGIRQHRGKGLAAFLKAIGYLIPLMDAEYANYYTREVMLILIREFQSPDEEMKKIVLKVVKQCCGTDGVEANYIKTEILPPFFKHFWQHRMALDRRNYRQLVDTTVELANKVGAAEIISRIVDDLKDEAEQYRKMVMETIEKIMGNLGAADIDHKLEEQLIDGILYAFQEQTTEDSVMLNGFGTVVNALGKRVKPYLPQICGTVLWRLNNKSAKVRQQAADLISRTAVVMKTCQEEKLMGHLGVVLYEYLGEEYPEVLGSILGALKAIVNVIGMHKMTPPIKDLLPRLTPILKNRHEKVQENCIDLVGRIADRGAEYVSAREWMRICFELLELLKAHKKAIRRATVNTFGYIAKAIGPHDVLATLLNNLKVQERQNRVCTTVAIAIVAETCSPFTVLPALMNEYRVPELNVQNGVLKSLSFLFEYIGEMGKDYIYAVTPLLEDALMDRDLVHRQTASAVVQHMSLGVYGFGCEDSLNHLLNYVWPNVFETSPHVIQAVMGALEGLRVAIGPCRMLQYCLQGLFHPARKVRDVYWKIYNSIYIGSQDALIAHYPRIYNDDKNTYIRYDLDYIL
UniProt Q99P65: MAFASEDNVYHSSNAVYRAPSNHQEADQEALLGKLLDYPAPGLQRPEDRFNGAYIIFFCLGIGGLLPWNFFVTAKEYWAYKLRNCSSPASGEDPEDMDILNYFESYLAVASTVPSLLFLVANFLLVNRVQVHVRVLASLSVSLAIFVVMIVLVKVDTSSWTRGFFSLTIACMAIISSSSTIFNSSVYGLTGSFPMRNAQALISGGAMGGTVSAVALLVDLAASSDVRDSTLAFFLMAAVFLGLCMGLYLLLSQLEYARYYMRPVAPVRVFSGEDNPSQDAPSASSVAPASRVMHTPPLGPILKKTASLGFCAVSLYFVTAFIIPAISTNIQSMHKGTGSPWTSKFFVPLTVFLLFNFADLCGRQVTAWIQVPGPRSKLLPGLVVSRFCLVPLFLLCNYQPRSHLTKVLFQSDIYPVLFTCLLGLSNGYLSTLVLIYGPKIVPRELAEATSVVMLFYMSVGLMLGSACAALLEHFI
UniProt Q99LT0, whole entry: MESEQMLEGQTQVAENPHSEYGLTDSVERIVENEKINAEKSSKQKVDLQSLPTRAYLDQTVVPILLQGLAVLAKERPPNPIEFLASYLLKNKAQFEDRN
UniProt Q99LX0: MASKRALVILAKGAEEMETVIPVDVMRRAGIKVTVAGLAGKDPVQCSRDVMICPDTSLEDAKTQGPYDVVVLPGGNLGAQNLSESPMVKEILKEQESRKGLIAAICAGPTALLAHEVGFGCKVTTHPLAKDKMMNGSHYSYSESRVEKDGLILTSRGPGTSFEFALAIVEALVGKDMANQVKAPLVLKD
UniProt Q9CQV4: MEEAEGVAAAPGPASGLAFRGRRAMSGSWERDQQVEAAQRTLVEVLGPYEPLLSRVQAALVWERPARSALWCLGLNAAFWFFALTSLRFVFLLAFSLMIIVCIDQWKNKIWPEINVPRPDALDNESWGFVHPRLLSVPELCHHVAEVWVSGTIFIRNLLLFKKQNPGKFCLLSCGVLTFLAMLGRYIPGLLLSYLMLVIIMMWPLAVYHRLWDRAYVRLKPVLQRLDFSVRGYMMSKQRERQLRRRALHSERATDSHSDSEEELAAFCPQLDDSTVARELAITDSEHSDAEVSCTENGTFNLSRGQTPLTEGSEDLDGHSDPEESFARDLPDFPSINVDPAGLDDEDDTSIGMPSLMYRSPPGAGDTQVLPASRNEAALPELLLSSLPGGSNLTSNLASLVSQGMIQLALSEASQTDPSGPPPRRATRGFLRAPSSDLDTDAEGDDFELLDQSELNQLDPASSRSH
UniProt Q99LX5: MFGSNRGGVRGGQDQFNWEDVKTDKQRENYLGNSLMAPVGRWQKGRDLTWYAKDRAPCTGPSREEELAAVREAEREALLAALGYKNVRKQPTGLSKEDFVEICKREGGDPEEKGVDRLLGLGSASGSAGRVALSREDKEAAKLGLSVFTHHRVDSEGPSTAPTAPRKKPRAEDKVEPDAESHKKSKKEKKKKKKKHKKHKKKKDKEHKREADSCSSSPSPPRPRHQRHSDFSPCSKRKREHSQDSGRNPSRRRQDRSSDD
UniProt Q9CPT4: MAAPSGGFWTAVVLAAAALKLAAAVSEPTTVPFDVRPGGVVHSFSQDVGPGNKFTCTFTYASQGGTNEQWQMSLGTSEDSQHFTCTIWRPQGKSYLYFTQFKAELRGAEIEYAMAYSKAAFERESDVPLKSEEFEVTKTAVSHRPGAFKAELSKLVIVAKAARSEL
UniProt Q9CQ80: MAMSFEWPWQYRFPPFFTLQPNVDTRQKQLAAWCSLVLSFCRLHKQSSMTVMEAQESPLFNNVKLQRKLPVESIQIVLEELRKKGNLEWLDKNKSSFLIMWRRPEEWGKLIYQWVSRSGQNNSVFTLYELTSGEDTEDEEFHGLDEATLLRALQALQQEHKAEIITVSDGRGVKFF
UniProt Q9CQY1, whole entry: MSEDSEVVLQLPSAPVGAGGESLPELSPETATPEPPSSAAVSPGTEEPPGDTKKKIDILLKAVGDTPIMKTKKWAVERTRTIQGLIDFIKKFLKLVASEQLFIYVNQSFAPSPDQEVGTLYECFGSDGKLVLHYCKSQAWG
UniProt Q99PT3, whole entry: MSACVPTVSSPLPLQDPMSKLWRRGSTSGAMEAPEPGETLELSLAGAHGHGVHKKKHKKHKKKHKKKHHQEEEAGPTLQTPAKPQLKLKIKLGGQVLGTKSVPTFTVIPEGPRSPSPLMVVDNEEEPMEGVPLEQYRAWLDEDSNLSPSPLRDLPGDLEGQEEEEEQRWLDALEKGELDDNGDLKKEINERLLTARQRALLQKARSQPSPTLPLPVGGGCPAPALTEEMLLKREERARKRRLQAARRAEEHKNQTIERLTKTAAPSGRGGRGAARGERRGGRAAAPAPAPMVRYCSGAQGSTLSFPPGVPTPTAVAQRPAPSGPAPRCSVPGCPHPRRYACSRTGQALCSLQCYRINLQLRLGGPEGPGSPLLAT
UniProt Q9CQS8, whole entry: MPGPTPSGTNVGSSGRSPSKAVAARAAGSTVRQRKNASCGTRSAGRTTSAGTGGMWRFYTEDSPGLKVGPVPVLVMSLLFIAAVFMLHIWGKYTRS
UniProt Q9CR30: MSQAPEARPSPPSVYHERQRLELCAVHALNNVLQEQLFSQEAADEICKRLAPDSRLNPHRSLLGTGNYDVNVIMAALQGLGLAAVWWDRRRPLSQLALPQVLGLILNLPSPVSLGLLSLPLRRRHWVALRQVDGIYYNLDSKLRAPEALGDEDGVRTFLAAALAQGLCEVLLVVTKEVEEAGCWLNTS
UniProt Q9CPT3: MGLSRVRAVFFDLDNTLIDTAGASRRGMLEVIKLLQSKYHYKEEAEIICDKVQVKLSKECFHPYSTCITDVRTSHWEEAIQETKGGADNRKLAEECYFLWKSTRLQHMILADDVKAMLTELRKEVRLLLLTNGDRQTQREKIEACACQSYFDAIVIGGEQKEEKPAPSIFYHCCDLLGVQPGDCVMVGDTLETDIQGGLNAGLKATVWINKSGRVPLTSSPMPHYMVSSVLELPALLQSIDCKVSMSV
UniProt Q9CQF8: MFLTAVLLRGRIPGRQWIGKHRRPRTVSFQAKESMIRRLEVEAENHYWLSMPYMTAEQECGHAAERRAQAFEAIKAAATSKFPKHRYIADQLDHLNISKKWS
UniProt Q99LP6: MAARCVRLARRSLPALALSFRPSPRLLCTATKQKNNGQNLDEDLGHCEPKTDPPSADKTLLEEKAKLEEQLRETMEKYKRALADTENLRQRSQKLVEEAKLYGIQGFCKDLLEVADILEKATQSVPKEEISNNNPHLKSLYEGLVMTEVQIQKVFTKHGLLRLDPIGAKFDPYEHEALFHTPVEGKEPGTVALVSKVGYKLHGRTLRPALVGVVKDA
UniProt Q9CR23: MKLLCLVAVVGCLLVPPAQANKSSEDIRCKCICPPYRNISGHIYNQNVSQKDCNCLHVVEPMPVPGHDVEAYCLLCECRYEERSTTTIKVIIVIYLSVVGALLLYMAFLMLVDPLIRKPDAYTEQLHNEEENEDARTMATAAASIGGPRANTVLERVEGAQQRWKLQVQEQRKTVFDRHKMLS

The other results are listed elsewhere or left out. Most values lie at the level of the controls, where differences are scatter.

Compound in the assay: CN[C@@H]1C[C@H]2O[C@@](C)([C@@H]1OC)n1c3ccccc3c3c4c(c5c6ccccc6n2c5c31)C(=O)NC4 [staurosporine]
The assay can be described thus: log2 fold change of tryptic peptide abundance, ligand vs vehicle (limited proteolysis) (log2 ratio); higher = more trypsin-susceptible (destabilized). Conditions: ligand concentration: 20 uM; sample: mouse liver crude lysate; replicate design: treated separately.

Turning to “UniProt Q9CQV1 (peptide sequence: ALRQEFAASQAAADAR, peptide start residue: 23)”, the log2 fold change is -0.091.
The figure for “UniProt Q9CQZ5 (peptide sequence: VVDLLVIK, peptide start residue: 81)” is -0.194.
As to “UniProt Q99NB8 (peptide sequence: RMYTDIQEPMFTAAR, peptide start residue: 279)”, the log2 fold change was -0.427.
In the case of “UniProt Q9CQR5 (peptide sequence: HLNGLQHLK, peptide start residue: 24)”, the log2 fold change came to 0.617.
In the case of “UniProt Q9CQ36 (peptide sequence: DAYCCAQQGK, peptide start residue: 82)”, the log2 fold change was found to be 0.0891.
On to “UniProt Q9CR50 (peptide sequence: TCYEEMLK, peptide start residue: 171)”, for which the log2 fold change worked out at 0.334.
Take “UniProt Q9CQ71 (peptide sequence: MFILSDGEGK, peptide start residue: 40)”: the log2 fold change was -0.047.
For the target “UniProt Q9CQA5 (peptide sequence: DGDFQELMK, peptide start residue: 73)”, the log2 fold change turned out to be 0.35.
For the target “UniProt Q9CQM9 (peptide sequence: LDGAHAPELTK, peptide start residue: 102)”, the log2 fold change is -0.22.
For “UniProt Q9CQ28 (peptide sequence: VAALGLDPDKHLGK, peptide start residue: 165)”, the log2 fold change is -0.186.
As for “UniProt Q99NB9 (peptide sequence: VRDVYWK, peptide start residue: 1261)”, the log2 fold change came out at 0.334.
As to “UniProt Q99LS1 (peptide sequence: LVSYLPGFCSLVKR, peptide start residue: 11)”, the log2 fold change came to 0.228.
The figure for “UniProt Q99P65 (peptide sequence: APSNHQEADQEALLGK, peptide start residue: 19)” is -0.785; for “UniProt Q9CR56 (peptide sequence: VDPDVAQHWAK, peptide start residue: 130)” it is 0.243.
Turning to “UniProt Q99LT0 (peptide sequence: AQFEDRN, peptide start residue: 93)”, the log2 fold change was -0.0825.
Next, “UniProt Q99LX0 (peptide sequence: DKMMNGSHYSYSESR, peptide start residue: 131)”: 0.0774; “UniProt Q9CQV4 (peptide sequence: DQQVEAAQR, peptide start residue: 32)”: 0.104.
On to “UniProt Q99PL6 (peptide sequence: GPTSQDSIR, peptide start residue: 72)”, for which the log2 fold change is -0.211.
Consider “UniProt Q9CQZ6 (peptide sequence: IEGTPLETVQKK, peptide start residue: 30)”, for which the log2 fold change came to 0.0777.
The figure for “UniProt Q99LX5 (peptide sequence: APCTGPSREEELAAVR, peptide start residue: 56)” is -0.733; for “UniProt Q9CPY7 (peptide sequence: EMLNISGPPLK, peptide start residue: 69)” it is -0.278; for “UniProt Q9CPT4 (peptide sequence: ESDVPLKSEEFEVTK, peptide start residue: 124)” it is -0.575.
For the target “UniProt Q9CQH0 (peptide sequence: ADGVLVGMDGR, peptide start residue: 72)”, the log2 fold change was -0.135.
With “UniProt Q9CQ80 (peptide sequence: KGNLEWLDK, peptide start residue: 84)”, the log2 fold change came out at 0.133.
As to “UniProt Q9CQY1 (peptide sequence: AVGDTPIMK, peptide start residue: 62)”, the log2 fold change is -0.187.
“UniProt Q9CQR2 (peptide sequence: LAKADGIVSKNF, peptide start residue: 72)”: the log2 fold change is 1.46.
Next, “UniProt Q99PT3 (peptide sequence: WLDALEKGELDDNGDLKK, peptide start residue: 169)”: -0.521; “UniProt Q99LR1 (peptide sequence: KRTEPVTLEHER, peptide start residue: 3)”: 0.081; “UniProt Q9CQS8 (peptide sequence: PGPTPSGTNVGSSGRSPSK, peptide start residue: 2)”: 0.109.
As to “UniProt Q9CQL4 (peptide sequence: LTDRYWR, peptide start residue: 14)”, the log2 fold change is 0.406.
Take “UniProt Q9CQI6 (peptide sequence: EFVISDRK, peptide start residue: 111)”: the log2 fold change stood at 0.0898.
Take “UniProt Q9CR30 (peptide sequence: PSPPSVYHER, peptide start residue: 9)”: the log2 fold change was -0.245.
In the case of “UniProt Q9CPT3 (peptide sequence: LLLLTNGDR, peptide start residue: 127)”, the log2 fold change was -0.724.
The figure for “UniProt Q9CQF8 (peptide sequence: AAATSKFPK, peptide start residue: 76)” is -0.295; for “UniProt Q99LP6 (peptide sequence: LEEQLRETMEK, peptide start residue: 67)” it is -0.361; for “UniProt Q9CR23 (peptide sequence: WKLQVQEQR, peptide start residue: 180)” it is -0.128.
